# Cleaved PARP after 72 h of treatment

Data from the primary screen of doi:10.1371/journal.pone.0140310, rounded.

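Human melanoma cell lines in 1,536-well plates were treated with two drugs together for 72 h, then fixed, stained and imaged. Values are the share of nuclei positive for cleaved PARP as a percentage of the same share in the DMSO control: 100 is the control level, higher means more apoptosis. Every drug was used at one fixed concentration, the higher of two screened. The file gives one value for each pair and line, without errors, so small differences may be noise. The marker varies much from line to line, for technical or biological reasons.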
This is part of the screen, not chosen by result.
An entry leaves out what has no value listed here.

Drugs:
GW0742 (10 µM): Cc1cc(SCc2sc(-c3ccc(C(F)(F)F)c(F)c3)nc2C)ccc1OCC(=O)O
XAV939 (10 µM): Oc1nc(-c2ccc(C(F)(F)F)cc2)nc2c1CSCC2
enzastaurin (4 µM): Cn1cc(C2=C(c3cn(C4CCN(Cc5ccccn5)CC4)c4ccccc34)C(=O)NC2=O)c2ccccc21
vismodegib (5 µM): CS(=O)(=O)c1ccc(C(=O)Nc2ccc(Cl)c(-c3ccccn3)c2)c(Cl)c1

{"pair": "GW0742 and XAV939", "LB2518-MEL": 82.9, "SK-MEL-5": 104, "G-361": 30.2, "WM115": 65.0, "COLO 792": 173, "SK-MEL-30": 97.0, "LOX IMVI": 51.5, "UACC-62": 132, "RVH-421": 27.8, "COLO 829": 125, "SK-MEL-28": 112, "A101D": 102, "RPMI-7951": 73.8, "C32": 100, "WM1716": 97.6, "MZ2-MEL": 68.9, "MeWo": 82.6, "MEL-HO": 54.0, "IPC-298": 48.1, "COLO 800": 67.2, "501mel": 155, "WM3619": 118, "SK-MEL-2": 107, "IST-MEL1": 105, "WM1745": 153, "UACC-257": 45.1, "WM3526": 117, "A375": 111, "A2058": 203, "WM451Lu": 29.3}
{"pair": "GW0742 and vismodegib", "LB2518-MEL": 176, "SK-MEL-5": 119, "G-361": 71.7, "WM115": 20.4, "COLO 792": 44.6, "SK-MEL-30": 127, "LOX IMVI": 105, "UACC-62": 141, "RVH-421": 57.7, "COLO 829": 132, "SK-MEL-28": 101, "A101D": 75.9, "RPMI-7951": 74.2, "C32": 91.5, "WM1716": 78.8, "MZ2-MEL": 75.2, "MeWo": 62.1, "MEL-HO": 79.6, "IPC-298": 74.4, "COLO 800": 88.7, "501mel": 186, "WM3619": 101, "SK-MEL-2": 101, "IST-MEL1": 58.7, "UACC-257": 34.6, "WM3526": 54.5, "A375": 140, "A2058": 109, "WM451Lu": 23.0}
{"pair": "GW0742 and enzastaurin", "LB2518-MEL": 89.0, "SK-MEL-5": 158, "G-361": 250, "WM115": 326, "COLO 792": 107, "SK-MEL-30": 82.0, "LOX IMVI": 189, "UACC-62": 430, "RVH-421": 81.7, "COLO 829": 88.8, "SK-MEL-28": 356, "A101D": 66.7, "RPMI-7951": 87.7, "C32": 90.7, "WM1716": 368, "MZ2-MEL": 100, "MeWo": 91.4, "MEL-HO": 139, "IPC-298": 192, "COLO 800": 185, "501mel": 93.9, "WM3619": 92.5, "SK-MEL-2": 666, "IST-MEL1": 100, "UACC-257": 44.8, "WM3526": 142, "A375": 68.6, "A2058": 329, "WM451Lu": 153}
{"pair": "vismodegib and enzastaurin", "LB2518-MEL": 126, "SK-MEL-5": 92.6, "G-361": 222, "WM115": 64.9, "COLO 792": 85.5, "SK-MEL-30": 72.9, "LOX IMVI": 59.5, "UACC-62": 108, "RVH-421": 181, "COLO 829": 91.4, "SK-MEL-28": 520, "A101D": 101, "RPMI-7951": 492, "C32": 37.1, "WM1716": 165, "MZ2-MEL": 159, "MeWo": 115, "MEL-HO": 71.7, "IPC-298": 53.0, "COLO 800": 88.8, "WM3619": 59.8, "SK-MEL-2": 440, "IST-MEL1": 141, "WM1745": 116, "UACC-257": 71.8, "WM3526": 234, "A375": 97.9, "A2058": 253, "WM451Lu": 281}
{"pair": "XAV939 and enzastaurin", "LB2518-MEL": 63.8, "SK-MEL-5": 146, "G-361": 86.7, "WM115": 95.0, "COLO 792": 34.5, "SK-MEL-30": 196, "LOX IMVI": 71.7, "UACC-62": 251, "RVH-421": 132, "COLO 829": 43.8, "SK-MEL-28": 122, "A101D": 349, "RPMI-7951": 94.8, "C32": 84.7, "WM1716": 168, "MZ2-MEL": 115, "MeWo": 60.7, "MEL-HO": 37.5, "IPC-298": 59.1, "COLO 800": 47.6, "501mel": 238, "WM3619": 79.2, "SK-MEL-2": 77.8, "IST-MEL1": 93.5, "UACC-257": 35.3, "WM3526": 154, "A375": 83.7, "A2058": 167, "WM451Lu": 148}